Measured values reported in PMC2829054.
No constants are given. Whether binding was seen depends on the method and setting. In cells and extracts the contact can be indirect. Some results given as binding are weak or reduced against the parent protein; the word gives no strength. For part of these data: Tags and fused reporters may be left off the sequences shown. Blank lines part the entries; values can stand above or below the molecule they belong to.

Sequences of proteins named here, by UniProt entry; tags and fusion partners are left off.
UniProt Q13535: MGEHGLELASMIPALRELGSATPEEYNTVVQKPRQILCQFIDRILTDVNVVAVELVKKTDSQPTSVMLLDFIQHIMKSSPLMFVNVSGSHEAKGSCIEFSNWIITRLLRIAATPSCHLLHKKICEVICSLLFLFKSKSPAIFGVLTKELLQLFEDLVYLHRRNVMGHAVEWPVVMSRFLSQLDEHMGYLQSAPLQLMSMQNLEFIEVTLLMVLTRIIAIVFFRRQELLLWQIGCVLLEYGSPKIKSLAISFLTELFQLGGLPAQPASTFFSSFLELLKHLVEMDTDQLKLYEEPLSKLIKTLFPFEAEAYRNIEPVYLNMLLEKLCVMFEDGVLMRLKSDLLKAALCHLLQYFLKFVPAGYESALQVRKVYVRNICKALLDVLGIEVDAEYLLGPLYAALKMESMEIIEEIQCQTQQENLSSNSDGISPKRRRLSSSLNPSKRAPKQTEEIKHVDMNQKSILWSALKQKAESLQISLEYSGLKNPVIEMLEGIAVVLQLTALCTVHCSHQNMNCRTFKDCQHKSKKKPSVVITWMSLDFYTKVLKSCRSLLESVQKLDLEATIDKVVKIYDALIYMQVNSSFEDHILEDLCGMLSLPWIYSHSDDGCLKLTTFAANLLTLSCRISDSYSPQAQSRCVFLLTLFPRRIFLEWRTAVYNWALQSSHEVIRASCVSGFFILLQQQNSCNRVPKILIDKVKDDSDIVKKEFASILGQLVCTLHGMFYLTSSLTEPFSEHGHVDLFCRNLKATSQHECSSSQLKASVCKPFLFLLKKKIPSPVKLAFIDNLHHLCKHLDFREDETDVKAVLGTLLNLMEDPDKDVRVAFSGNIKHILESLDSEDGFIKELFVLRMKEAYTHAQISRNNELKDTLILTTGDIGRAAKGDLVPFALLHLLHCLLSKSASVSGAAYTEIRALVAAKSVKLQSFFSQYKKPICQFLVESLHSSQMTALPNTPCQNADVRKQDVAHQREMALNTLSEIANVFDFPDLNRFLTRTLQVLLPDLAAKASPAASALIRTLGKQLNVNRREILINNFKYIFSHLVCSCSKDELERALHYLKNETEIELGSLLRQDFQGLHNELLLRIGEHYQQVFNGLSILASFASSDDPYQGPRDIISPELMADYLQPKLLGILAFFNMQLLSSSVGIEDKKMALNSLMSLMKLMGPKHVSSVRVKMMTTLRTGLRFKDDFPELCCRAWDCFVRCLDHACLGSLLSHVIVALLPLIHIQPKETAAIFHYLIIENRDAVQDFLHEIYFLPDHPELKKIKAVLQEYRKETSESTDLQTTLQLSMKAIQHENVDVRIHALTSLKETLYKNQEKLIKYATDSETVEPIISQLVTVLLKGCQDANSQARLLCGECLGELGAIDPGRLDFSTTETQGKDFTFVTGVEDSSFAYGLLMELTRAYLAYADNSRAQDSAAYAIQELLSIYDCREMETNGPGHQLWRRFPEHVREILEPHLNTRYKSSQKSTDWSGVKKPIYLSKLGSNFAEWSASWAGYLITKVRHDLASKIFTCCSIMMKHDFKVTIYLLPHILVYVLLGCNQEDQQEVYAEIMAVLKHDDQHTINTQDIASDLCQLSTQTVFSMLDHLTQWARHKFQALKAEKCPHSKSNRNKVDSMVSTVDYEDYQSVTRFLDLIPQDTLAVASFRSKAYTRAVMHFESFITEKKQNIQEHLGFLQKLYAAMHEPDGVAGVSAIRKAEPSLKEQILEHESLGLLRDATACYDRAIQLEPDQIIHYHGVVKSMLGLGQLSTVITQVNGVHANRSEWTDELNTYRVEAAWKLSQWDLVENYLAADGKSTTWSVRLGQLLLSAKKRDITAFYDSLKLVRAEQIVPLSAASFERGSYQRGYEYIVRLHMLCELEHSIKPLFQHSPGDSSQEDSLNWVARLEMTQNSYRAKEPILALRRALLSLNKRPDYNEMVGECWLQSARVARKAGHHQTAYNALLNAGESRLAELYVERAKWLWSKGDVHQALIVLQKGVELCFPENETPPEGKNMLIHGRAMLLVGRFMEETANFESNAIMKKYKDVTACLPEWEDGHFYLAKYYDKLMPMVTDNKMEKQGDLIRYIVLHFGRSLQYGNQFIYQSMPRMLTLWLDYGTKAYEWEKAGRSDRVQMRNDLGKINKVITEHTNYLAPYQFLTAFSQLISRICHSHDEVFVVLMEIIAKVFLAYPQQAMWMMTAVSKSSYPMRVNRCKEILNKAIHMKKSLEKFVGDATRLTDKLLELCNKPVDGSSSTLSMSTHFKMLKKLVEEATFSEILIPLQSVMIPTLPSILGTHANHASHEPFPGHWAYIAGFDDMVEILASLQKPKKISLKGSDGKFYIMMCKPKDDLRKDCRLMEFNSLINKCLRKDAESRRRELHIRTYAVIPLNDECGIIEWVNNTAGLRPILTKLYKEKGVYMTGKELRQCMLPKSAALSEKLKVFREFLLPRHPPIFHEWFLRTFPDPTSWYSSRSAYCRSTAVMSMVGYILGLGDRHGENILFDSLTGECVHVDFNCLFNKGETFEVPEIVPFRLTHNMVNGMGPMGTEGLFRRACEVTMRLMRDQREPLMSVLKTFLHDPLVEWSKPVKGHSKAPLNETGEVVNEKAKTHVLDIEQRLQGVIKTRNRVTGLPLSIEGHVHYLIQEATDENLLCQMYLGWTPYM

How the values were obtained:
[1] = target: T1, HA-tagged Cdc6 (human) (UniProt Q99741); experiment: co-IP; co-immunoprecipitation of Cdc6 and ATR with 50 µg/ml ethidium bromide (data not shown)
T1 sequence: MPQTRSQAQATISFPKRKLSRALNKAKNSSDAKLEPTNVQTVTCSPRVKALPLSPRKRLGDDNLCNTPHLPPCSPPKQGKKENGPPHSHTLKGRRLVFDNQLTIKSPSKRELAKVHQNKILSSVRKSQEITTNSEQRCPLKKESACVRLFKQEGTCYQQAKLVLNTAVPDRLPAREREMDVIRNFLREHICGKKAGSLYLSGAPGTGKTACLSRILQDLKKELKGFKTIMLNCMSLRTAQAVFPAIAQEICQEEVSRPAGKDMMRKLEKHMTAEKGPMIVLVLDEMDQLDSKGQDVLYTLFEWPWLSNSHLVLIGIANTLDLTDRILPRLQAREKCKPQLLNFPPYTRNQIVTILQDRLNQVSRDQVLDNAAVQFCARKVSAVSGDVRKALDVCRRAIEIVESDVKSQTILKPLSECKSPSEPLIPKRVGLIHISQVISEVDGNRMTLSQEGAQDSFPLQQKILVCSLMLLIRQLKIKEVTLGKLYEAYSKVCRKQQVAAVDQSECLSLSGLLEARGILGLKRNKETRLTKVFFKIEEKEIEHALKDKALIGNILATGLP

[2] = target: T2, HA-tagged phosphomimetic Cdc6 (S54D, S74D, S106D) (human) (UniProt Q99741); experiment: co-IP; anti-HA immunoprecipitation from non-denatured lysates of transfected HCT116 or CDK2 knockout cells, untreated or 4 h after 12 Gy IR; immunoblot for ATR
T2 sequence: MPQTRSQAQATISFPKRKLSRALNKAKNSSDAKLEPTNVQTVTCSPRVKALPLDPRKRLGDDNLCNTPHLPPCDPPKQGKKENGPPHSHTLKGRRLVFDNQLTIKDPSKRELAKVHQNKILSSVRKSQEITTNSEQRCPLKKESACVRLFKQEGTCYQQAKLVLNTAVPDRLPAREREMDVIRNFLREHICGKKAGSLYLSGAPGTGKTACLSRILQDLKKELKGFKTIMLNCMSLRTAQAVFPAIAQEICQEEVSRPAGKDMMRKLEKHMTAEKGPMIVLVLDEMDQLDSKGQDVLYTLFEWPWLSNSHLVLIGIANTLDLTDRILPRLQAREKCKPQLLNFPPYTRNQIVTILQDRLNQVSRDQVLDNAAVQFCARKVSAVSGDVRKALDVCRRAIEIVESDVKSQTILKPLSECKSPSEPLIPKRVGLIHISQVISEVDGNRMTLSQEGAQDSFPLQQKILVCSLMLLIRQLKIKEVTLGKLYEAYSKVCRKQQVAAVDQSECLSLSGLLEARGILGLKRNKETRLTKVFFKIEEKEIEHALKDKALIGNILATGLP

[3] = target: T3, HA-tagged non-phosphorylatable Cdc6 (S54A, S74A, S106A) (human) (UniProt Q99741); experiment: as above
T3 sequence: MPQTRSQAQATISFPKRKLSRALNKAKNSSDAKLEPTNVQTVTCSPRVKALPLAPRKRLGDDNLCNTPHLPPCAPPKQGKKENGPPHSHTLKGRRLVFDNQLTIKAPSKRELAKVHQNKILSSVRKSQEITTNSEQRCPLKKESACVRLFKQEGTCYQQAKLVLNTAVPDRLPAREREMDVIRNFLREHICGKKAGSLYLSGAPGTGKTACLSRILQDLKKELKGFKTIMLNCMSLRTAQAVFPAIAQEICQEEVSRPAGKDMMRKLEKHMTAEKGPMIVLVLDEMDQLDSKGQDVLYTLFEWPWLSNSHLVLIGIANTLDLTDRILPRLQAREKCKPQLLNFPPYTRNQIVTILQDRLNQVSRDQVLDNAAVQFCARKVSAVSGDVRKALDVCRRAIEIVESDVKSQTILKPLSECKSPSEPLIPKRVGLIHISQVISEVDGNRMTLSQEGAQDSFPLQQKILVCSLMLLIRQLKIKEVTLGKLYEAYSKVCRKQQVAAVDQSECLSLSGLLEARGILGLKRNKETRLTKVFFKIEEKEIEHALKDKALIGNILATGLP

[4] = target: T1, HA-tagged Cdc6 (human); experiment: as above
[5] = target: ATR (human (endogenous in HCT116 and U2OS)) (UniProt Q13535); experiment: co-IP; anti-ATR immunoprecipitation of endogenous proteins from non-denatured lysates of HCT116 and isogenic cells, before or 4 h after 12 Gy IR; Protein A/G agarose overnight at 4°C; immunoblot
[6] = target: ATR (human (endogenous in HCT116 and U2OS)) (UniProt Q13535); experiment: co-IP; anti-ATR immunoprecipitation from non-denatured lysates of HCT116 or U2OS cells transfected with HA-Cdc6, untreated or 4 h after 12 Gy IR; immunoblot for HA-Cdc6

binding [1]: binds
binding [2]: binds
binding [3]: binds
binding [4]: binds
Molecule: ATR (from UniProt Q13535 1-2644) (enzyme)

binding [5]: binds
B1: Cdc6 (endogenous) (protein, UniProt Q99741 1-560)
chain: MPQTRSQAQATISFPKRKLSRALNKAKNSSDAKLEPTNVQTVTCSPRVKALPLSPRKRLGDDNLCNTPHLPPCSPPKQGKKENGPPHSHTLKGRRLVFDNQLTIKSPSKRELAKVHQNKILSSVRKSQEITTNSEQRCPLKKESACVRLFKQEGTCYQQAKLVLNTAVPDRLPAREREMDVIRNFLREHICGKKAGSLYLSGAPGTGKTACLSRILQDLKKELKGFKTIMLNCMSLRTAQAVFPAIAQEICQEEVSRPAGKDMMRKLEKHMTAEKGPMIVLVLDEMDQLDSKGQDVLYTLFEWPWLSNSHLVLIGIANTLDLTDRILPRLQAREKCKPQLLNFPPYTRNQIVTILQDRLNQVSRDQVLDNAAVQFCARKVSAVSGDVRKALDVCRRAIEIVESDVKSQTILKPLSECKSPSEPLIPKRVGLIHISQVISEVDGNRMTLSQEGAQDSFPLQQKILVCSLMLLIRQLKIKEVTLGKLYEAYSKVCRKQQVAAVDQSECLSLSGLLEARGILGLKRNKETRLTKVFFKIEEKEIEHALKDKALIGNILATGLP

binding [6]: binds
B2: HA-tagged Cdc6 (protein, UniProt Q99741 1-560)
chain: MPQTRSQAQATISFPKRKLSRALNKAKNSSDAKLEPTNVQTVTCSPRVKALPLSPRKRLGDDNLCNTPHLPPCSPPKQGKKENGPPHSHTLKGRRLVFDNQLTIKSPSKRELAKVHQNKILSSVRKSQEITTNSEQRCPLKKESACVRLFKQEGTCYQQAKLVLNTAVPDRLPAREREMDVIRNFLREHICGKKAGSLYLSGAPGTGKTACLSRILQDLKKELKGFKTIMLNCMSLRTAQAVFPAIAQEICQEEVSRPAGKDMMRKLEKHMTAEKGPMIVLVLDEMDQLDSKGQDVLYTLFEWPWLSNSHLVLIGIANTLDLTDRILPRLQAREKCKPQLLNFPPYTRNQIVTILQDRLNQVSRDQVLDNAAVQFCARKVSAVSGDVRKALDVCRRAIEIVESDVKSQTILKPLSECKSPSEPLIPKRVGLIHISQVISEVDGNRMTLSQEGAQDSFPLQQKILVCSLMLLIRQLKIKEVTLGKLYEAYSKVCRKQQVAAVDQSECLSLSGLLEARGILGLKRNKETRLTKVFFKIEEKEIEHALKDKALIGNILATGLP
